Test results reported in patent publication US20080213860.

Tests used:
Experiment in all cases: enzyme reaction in vitro
[1] = tested on: T1, BsmI R126D (Bacillus stearothermophilus NUB36); conditions: low nicking activity, low ds-DNA cleavage; protein in an extract; only the site is given
T1 sequence: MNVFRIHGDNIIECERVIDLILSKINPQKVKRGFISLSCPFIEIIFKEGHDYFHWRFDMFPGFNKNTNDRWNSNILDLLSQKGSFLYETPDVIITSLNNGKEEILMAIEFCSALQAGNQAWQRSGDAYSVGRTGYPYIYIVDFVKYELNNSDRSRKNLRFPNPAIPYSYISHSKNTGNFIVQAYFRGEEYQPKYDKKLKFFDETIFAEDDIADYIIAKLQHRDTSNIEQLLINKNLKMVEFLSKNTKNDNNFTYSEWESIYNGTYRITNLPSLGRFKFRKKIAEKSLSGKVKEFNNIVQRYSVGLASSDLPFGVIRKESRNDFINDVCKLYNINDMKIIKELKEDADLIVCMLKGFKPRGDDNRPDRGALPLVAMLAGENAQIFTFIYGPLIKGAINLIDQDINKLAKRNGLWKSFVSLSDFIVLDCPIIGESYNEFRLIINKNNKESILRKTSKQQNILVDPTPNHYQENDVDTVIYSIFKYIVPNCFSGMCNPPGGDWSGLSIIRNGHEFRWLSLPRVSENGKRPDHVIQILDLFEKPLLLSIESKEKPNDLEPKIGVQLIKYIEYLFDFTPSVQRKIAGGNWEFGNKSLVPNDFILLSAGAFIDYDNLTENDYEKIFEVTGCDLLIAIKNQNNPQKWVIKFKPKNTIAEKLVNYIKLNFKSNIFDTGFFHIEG

[2] = tested on: T2, BsmI R409D (Bacillus stearothermophilus NUB36); conditions: ds-DNA cleavage; protein in an extract; only the site is given
T2 sequence: T1 sequence with D126R, R409D

[3] = tested on: T3, BsmI R519D (Bacillus stearothermophilus NUB36); conditions: low nicking activity, low ds-DNA cleavage; protein in an extract; only the site is given
T3 sequence: T1 sequence with D126R, R519D

[4] = tested on: T4, BsmI R70D (Bacillus stearothermophilus NUB36); conditions: ds-DNA cleavage; protein in an extract; only the site is given
T4 sequence: T1 sequence with R70D, D126R

**Q.** With “GCATTC [pBR322 supercoiled plasmid (one BsmI site)]” as the sequence, how does the “activity on this sequence” value [1] read?
**A.** less active

**Q.** What about the “activity on this sequence” value [2] of the same sequence?
**A.** active

**Q.** What about the “activity on this sequence” value [3] of the same sequence?
**A.** less active

**Q.** And the “activity on this sequence” value [4]?
**A.** active

Changes are numbered by the printed parent chain. The exact form of at least one protein or probe is not confirmed. For some of these results: The comparison behind a weaker result is the experiment's own reference, which may not be listed here. Where a protein sequence is shown, tags need not be part of it.
